Consider four molecules from paper PMC5312596, “A novel Pfs38 protein complex on the surface of Plasmodium falciparum blood-stage merozoites” (Malaria Journal, 2017).

Protein sequences, listed by entry. Tags and fused reporters are not part of them. Residues count along the entry.
UniProt P02724, residues 20-150: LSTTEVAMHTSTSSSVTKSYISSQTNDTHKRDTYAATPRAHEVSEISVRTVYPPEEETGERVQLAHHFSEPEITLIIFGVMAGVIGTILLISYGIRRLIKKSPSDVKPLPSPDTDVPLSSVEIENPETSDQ
UniProt Q9TY95, residues 23-997: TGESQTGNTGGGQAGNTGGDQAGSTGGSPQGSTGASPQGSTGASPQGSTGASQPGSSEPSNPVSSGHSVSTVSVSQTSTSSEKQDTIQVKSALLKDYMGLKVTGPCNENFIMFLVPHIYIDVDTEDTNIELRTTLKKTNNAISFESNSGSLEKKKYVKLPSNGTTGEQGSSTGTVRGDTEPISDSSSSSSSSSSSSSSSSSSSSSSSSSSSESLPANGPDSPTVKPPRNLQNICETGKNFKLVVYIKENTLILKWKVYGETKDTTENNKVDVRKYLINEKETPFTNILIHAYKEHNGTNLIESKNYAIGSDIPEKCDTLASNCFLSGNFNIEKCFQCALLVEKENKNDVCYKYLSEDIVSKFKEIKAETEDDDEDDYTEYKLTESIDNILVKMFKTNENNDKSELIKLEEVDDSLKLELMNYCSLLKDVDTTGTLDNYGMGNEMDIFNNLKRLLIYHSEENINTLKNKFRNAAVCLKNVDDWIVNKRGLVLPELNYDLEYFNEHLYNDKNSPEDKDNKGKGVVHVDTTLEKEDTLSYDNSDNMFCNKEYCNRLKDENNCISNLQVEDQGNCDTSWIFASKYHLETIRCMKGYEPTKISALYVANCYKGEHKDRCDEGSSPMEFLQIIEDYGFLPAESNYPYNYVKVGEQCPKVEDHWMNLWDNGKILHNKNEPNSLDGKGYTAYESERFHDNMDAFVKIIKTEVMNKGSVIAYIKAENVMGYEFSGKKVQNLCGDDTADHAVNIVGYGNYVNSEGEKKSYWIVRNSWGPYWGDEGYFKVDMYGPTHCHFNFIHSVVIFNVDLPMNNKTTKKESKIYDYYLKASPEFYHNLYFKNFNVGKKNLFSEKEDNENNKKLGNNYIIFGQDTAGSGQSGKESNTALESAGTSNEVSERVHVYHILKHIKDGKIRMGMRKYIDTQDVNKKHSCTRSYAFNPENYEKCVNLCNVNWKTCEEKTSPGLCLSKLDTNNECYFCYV

The target of assay [1] is T1, recombinant Pfs38 (6-Cys domain, aa 153–328) (Plasmodium falciparum) (UniProt Q8I423).
T1 sequence: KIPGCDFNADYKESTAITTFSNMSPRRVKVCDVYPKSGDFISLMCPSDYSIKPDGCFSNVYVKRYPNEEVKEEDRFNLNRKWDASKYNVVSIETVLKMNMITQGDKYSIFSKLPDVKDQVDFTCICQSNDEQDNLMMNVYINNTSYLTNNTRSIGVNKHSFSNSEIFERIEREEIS
Put plainly: ELISA; inhibition assay: Pfs38 coated at 2 µg/mL; anti-Pfs38 antibodies at 0.25, 0.5, 1 and 2 mg/mL for 30 min, then glycophorin A at 20 µg/mL for 2 h; both purified. (ELISA stands for enzyme-linked immunosorbent assay.)

In assay [2] the target is native Pfs38 (Plasmodium falciparum 3D7 (endogenous in cultured parasites)) (UniProt Q8I423). Put plainly: co-sedimentation; schizont lysate (0.5% Nonidet P-40/Hepes-buffered saline) on a 5-45% step glycerol gradient, 38,000 rpm, 18 h, 4 °C; fractions analysed by Western blot and fraction 5 by LC-MS/MS.
The target in assay [3] is T1, recombinant Pfs38 (6-Cys domain, aa 153–328) (Plasmodium falciparum). The experiment in a line: ELISA; Pfs38 coated at 2 µg/mL overnight at 4 °C; recombinant partners added at 2, 5, 10 and 20 µg/ml for 2 h; detected with polyclonal antibody against the added protein; both purified.
Assay [4] has the same target. Put plainly: far-Western, overlay or dot blot; 1-5 µg recombinant protein separated by SDS-PAGE, blotted, denatured and renatured; membrane incubated with 2 µg/mL purified GLURP R2, Pfs38 or SERA-5 in 100 mM NaCl, 20 mM Tris pH 7.6, 0.5 mM EDTA, 10% glycerol, 1 mM DTT, 2 h at RT; detected with antisera to the soluble protein; both purified.
For the next assay, the target named is glycophorin A (human) (UniProt P02724). The experiment in a line: ELISA; glycophorin A coated at 1 µg/mL at 4 °C; increasing concentrations of Pfs38, GLURP R2 or PfMLH added for 2 h; both purified.

Results are given in words; binding and its absence hold for the method and conditions named. For some assays here: In cells and extracts the contact can be indirect. Some results given as binding are weak or reduced against the parent protein; the word gives no strength.

Consider “glycophorin A (from UniProt P02724 20-150) (receptor)”, for which the binding result in assay [1] is given as “binds”.

Consider “native Serine repeat antigen 5 (SERA-5) (from UniProt Q9TY95 23-997)”, for which the binding result in assay [2] is “binds”.

Turning to “recombinant SERA5 (from UniProt Q9TY95 23-997)”, the binding entry in assay [3] and in assay [4] was “binds” throughout.

B1: recombinant Pfs38 (6-Cys domain, aa 153–328) (domain or fragment)
chain: KIPGCDFNADYKESTAITTFSNMSPRRVKVCDVYPKSGDFISLMCPSDYSIKPDGCFSNVYVKRYPNEEVKEEDRFNLNRKWDASKYNVVSIETVLKMNMITQGDKYSIFSKLPDVKDQVDFTCICQSNDEQDNLMMNVYINNTSYLTNNTRSIGVNKHSFSNSEIFERIEREEIS
notes: Pfs38, Plasmodium falciparum 6-Cys protein; 6-Cys domain aa 153-328, amplified from a codon-optimised synthetic gene (aa 22-328) and cloned in pET28b between NcoI and XhoI; Cloning in pET28b between NcoI and XhoI would give a C-terminal His6 (surmised); The forward primer adds a few residues (Met-Gly-Ser) before the insert (surmised from the primer); also called rPfs38
For the molecule B1, the binding entry in the assay with glycophorin A (human) is on record as “binds”.
